According to patent US10308606B2 (On Target Laboratories, LLC, priority 2016, dated 2019):

Assay: general procedure: solution-phase peptide synthesis
Conditions: coupling step

Q: For “DUPA-(O^tBu)3-PEG2-Phe-Tyr-(O^tBu)-O^tBu”, which step yield is on record?
A: The step yield was 75%.
